# The whole screen tested about 360,000 compounds, of which about 7,500 (2.1%) were called active. Inconclusive results, whose numbers are uncertain, are shown with a selection of clear calls. Calls follow the shape of the dose curve; as a rule, active = well fitted inhibition curve with a large enough effect; inconclusive = small, poorly fitted or top-dose-only effect, or effect the other way; inactive = flat fitted curve, though single readings scatter. A potency beside an inconclusive call is a rough fit, not a confirmed value.
# Assay: Nrf2 qHTS screen for inhibitors; also: nearly all actives have a fitted effect of over 60% in size
# Conditions: A549 ARE-Fluc reporter, luciferase luminescence, 18-24 h; series mostly up to 46 µM
# In short: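 Quantitative HTS in A549 cells stably bearing an antioxidant response element-firefly luciferase construct. Inhibition of Nrf2-driven transcription was scored by luminescence after 18-24 h of compound exposure at 37 °C.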
# Potency is read from the fitted curve at half-maximal effect.
row,Compound,Potency
1,Cn1c(CSc2nnc(SCc3ccccc3)s2)nc2ccccc21,"inconclusive: 29.1 µM [falling, single point]"
2,CC(C)c1ccc(N(C(=O)c2snc(C(N)=O)c2N)C(C(=O)NC2CCCC2)c2ccncc2)cc1 (stereo not drawn),"inconclusive: 29.1 µM [activator, single point]"
3,Cc1cccc(NC(=O)CSc2nc(-c3ccccc3Cl)nc3c2Cc2c(CO)cnc(C)c2O3)c1C,"inconclusive: 29.1 µM [activator, single point]"
4,CCOc1cc(CNc2ccc(N3CCN(C(C)=O)CC3)cc2)cc(Br)c1OC,"inconclusive: 29.1 µM [falling, single point]"
5,CCOc1cccc(C2CC(=O)Nc3cc4c(cc32)OCCO4)c1 (stereo not drawn),active: 14.6 µM
6,O=C(NCc1ccccc1)C1CCCN(S(=O)(=O)c2ccc(Br)cc2)C1 (stereo not drawn),"inconclusive: 0.0411 µM [falling, full curve, poor fit]"
7,CCOc1ccc(C(=O)OCC(=O)Nc2nc(OC)cc(OC)n2)cc1OCC,inactive
8,C/C(=N\NC(=O)c1ccc(F)cc1)c1ccc(N2CCOCC2)cc1,"inconclusive: 5.8 µM [activator, partial curve]"
9,COCCn1cc(C(=O)NCCCOC(C)C)c2c3ccccc3n(C)c2c1=O,inactive
10,Cc1nn(C)cc1CNC(=O)Nc1ccc(Br)cc1Cl,"inconclusive: 14.6 µM [falling, partial curve, poor fit]"
11,Cc1ccc([C@H]2C(C(=O)O)=CC[C@@H](c3ccc(C(C)C)cc3)N2S(=O)(=O)c2ccc(C)cc2)cc1,"inconclusive: 29.1 µM [falling, single point]"
12,COc1ccc(-c2cc3nc(C)cc(N)n3n2)cc1,"inconclusive: 1.64 µM [activator, full curve]"
13,CCc1nn(CC(=O)NC(C)CCc2ccccc2)c(=O)c2cc3c(OC)cccc3n12 (stereo not drawn),"inconclusive: 6.51 µM [activator, single point]"
14,CCOc1cc(CNc2ccccc2)cc(Br)c1OCC(=O)NC(C)(C)C,"inconclusive: 0.731 µM [falling, full curve, poor fit]"
15,Cc1ccc(Nc2cc(C)nn2-c2nc(C)cc(C)n2)cc1,"inconclusive: 11.6 µM [falling, partial curve]"
16,O=C1CCc2cc(S(=O)(=O)Nc3cccc(B(O)O)c3)ccc2N1,"inconclusive: 29.1 µM [falling, single point]"
17,O=[N+]([O-])c1ncc(Br)cc1Nc1ccccc1,"inconclusive: 0.146 µM [falling, partial curve, poor fit]"
18,Cc1ccc(Cl)c(NC(=O)COC(=O)c2ccccc2C(=O)c2ccc(Cl)c([N+](=O)[O-])c2)c1Cl,active: 23.1 µM
19,Cc1cc(Cl)n2c(nc3cc(F)c(F)cc32)c1C#N,inactive
20,COc1ccc(C2CC(=O)c3c(C)nc(N4CCN(Cc5ccccc5)CC4)nc3C2)cc1OC (stereo not drawn),active: 18.4 µM
21,N/C(=N\OC(=O)c1cccc(F)c1)c1ccccc1,"inconclusive: 14.6 µM [activator, partial curve]"
22,COCCn1cc(C(=O)NCc2cccs2)c2c3ccccc3n(C)c2c1=O,inactive

row,Compound,Potency
1,CCOc1ccccc1N1CCN(C(=O)c2cc(-c3cc(OC)ccc3OC)nc3ccccc23)CC1,active: 20.6 µM
2,COc1cc([N+](=O)[O-])c2ncsc2c1,inactive
3,O=C(CSc1nc2ccccc2nc1SCC(=O)N1CCOCC1)N1CCOCC1,inactive
4,COc1cc(CNc2ncnc3c2[nH]c2ccc(C)cc23)cc(OC)c1,active: 14.6 µM
5,CCc1ccc(NC(=O)Cn2c(=O)n(-c3ccc(OC)cc3)c(=O)c3ccc(C(=O)NCc4ccc(C)cc4)cc32)cc1,"inconclusive: 0.0046 µM [activator, full curve, poor fit]"
6,Cc1ccc(S(=O)(=O)c2nc(-c3ccco3)oc2SCC(N)=O)cc1,inactive
7,CN(CC(=O)Nc1cccc(F)c1)C(=O)c1cccc(S(=O)(=O)N2CCN(c3ccc(F)cc3)CC2)c1,active: 16.4 µM
8,O=C(O)c1ccc(/C=N/Nc2cccc(C(F)(F)F)c2)cc1,"inconclusive: 3.26 µM [activator, partial curve, poor fit]"
9,Cc1ccc(S(=O)(=O)N(CC(=O)Nc2cccc(C)c2C)C(=O)N2CCN(C)CC2)cc1,"inconclusive: 6.51 µM [activator, partial curve, poor fit]"
10,O=C(Cc1nnc(-c2nc3ccccc3[nH]2)o1)Nc1cc(C(F)(F)F)ccc1Cl,inactive
11,CCc1ccc(N2CC(C(=O)Nc3ccc(S(=O)(=O)NCC4CCCO4)cc3)CC2=O)cc1 (stereo not drawn),inactive
12,S=C(NCCc1ccccc1)Nc1cccc2cnccc12,active: 3.66 µM
13,COc1ccc(C2(CNC(=O)c3ccc(N)cc3)CCCC2)cc1,inactive
14,COC(=O)c1c(NS(=O)(=O)c2ccc3ccccc3c2)sc2c1CCCC2,"inconclusive: 29.1 µM [falling, single point]"
15,O=C(Nc1nccs1)C1CCCN(S(=O)(=O)c2cccc3cccnc23)C1 (stereo not drawn),"inconclusive: 29.1 µM [falling, single point]"
16,O=C(CSc1ccc(-c2ccccn2)nn1)Nc1ccc(F)cc1F,"inconclusive: 25.9 µM [falling, partial curve]"
17,COc1ccc2c(CC(=O)NNC(=O)c3cccs3)coc2c1,"inconclusive: 6.51 µM [activator, partial curve, poor fit]"
18,Cc1ccc2nc(COc3ccc(N(C)S(=O)(=O)c4ccccc4)cc3)cc(=O)n2c1,"inconclusive: 20.6 µM [falling, single point]"
19,CCC(C(=O)N1CCN(c2cc(C)ccc2C)CC1)n1nc(C)n2c(cc3occc32)c1=O (stereo not drawn),"inconclusive: 29.1 µM [falling, single point]"
20,CCOC(=O)c1ccc(CNCc2ccccc2)cc1,"inconclusive: 29.1 µM [activator, partial curve, poor fit]"
21,CCOC(=O)c1[nH]c2ccc(OC)cc2c1NC(=O)CN1CCc2ccccc2C1,"inconclusive: 29.1 µM [falling, single point]"

# Part of the list above, set out differently.
row	Compound	Potency
7	CN(CC(=O)Nc1cccc(F)c1)C(=O)c1cccc(S(=O)(=O)N2CCN(c3ccc(F)cc3)CC2)c1	active: 16.4 µM
8	O=C(O)c1ccc(/C=N/Nc2cccc(C(F)(F)F)c2)cc1	inconclusive: 3.26 µM [activator, partial curve, poor fit]
9	Cc1ccc(S(=O)(=O)N(CC(=O)Nc2cccc(C)c2C)C(=O)N2CCN(C)CC2)cc1	inconclusive: 6.51 µM [activator, partial curve, poor fit]

# Source: PubChem BioAssay AID504444 (National Center for Advancing Translational Sciences (NCATS), 2011)
